In patent US20200054682A1, “METHODS AND COMPOSITIONS FOR TREATING MITOCHONDRIAL DISEASE OR DISORDERS AND HETEROPLASMY” (Imel Biotherapeutics, Inc., priority 2018, published 2020):
“Also recorded” adds a separate entry of the source. At least one structure is not confirmed: it was looked up by name or label, or the drawing left a doubt.

System: NHDF recipient cells
Test: engulfment of DsRed-labeled exogenous mitochondria by FACS with rapamycin or palmitic acid
Assay type: cell-based, human
Details: ρ(−) NHDF cells; rapamycin 50 ng/ml, palmitic acid 50 μM; FACS day 8
Description: Rapamycin was added into the culture media at the concentration of 50 ng/ml for 24 hours, and cells were exposed to glucose and essential amino acids free media without serum for 1 hour to simulate starvation. […] The ratio of phosphorylated AMPK to AMPK and phosphorylated p70 S6 kinase to p70 S6 kinase, which is a downstream target of mTORC1, were examined by using capillary electrophoresis, Wes™ (Protein Simple).
Next, we examined the effects of rapamycin and palmitic acid upon mitochondria engulfment by treating the cells with rapamycin or palmitic acid simultaneously during the mitochondria co-cultivation. A scheme of the protocol is illustrated in FIG. 6I. Briefly, the NHDF recipient cells were transfected with the MTS-XbaI expression vector and cultured with or without rapamycin, or with or without palmitic acid (PA). Puromycin selection for ρ(−) cells expressing the MTS-XbaI was performed after 48 hours. On day 6, transfer of isolated mitochondria marked with DsRed from EPC100 cells was performed. On Day8, FACS analyses were performed to detect the donor mitochondria by measuring DsRed expression in the NHDF recipient cells.

CO[C@H]1C[C@@H]2CC[C@@H](C)[C@@](O)(O2)C(=O)C(=O)N2CCCC[C@H]2C(=O)O[C@H]([C@H](C)C[C@@H]2CC[C@@H](O)[C@H](OC)C2)CC(=O)[C@H](C)/C=C(\C)[C@@H](O)[C@@H](OC)C(=O)[C@H](C)C[C@H](C)/C=C/C=C/C=C/1C [rapamycin]
engulfment of DsRed-labeled isolated exogenous mitochondria: significantly increased; also recorded: significantly enhanced
